From article PMC10693208 (Evolutionary Bioinformatics Online, 2023)

System: H1975 cells
Test: MTT cytotoxicity, H1975
Format: cell-based
Conditions: Homo sapiens, NCI-H1975, read-out: H1975 IC50

SMILES: CN[C@@H]1C[C@H]2O[C@@](C)([C@@H]1OC)n1c3ccccc3c3c4c(c5c6ccccc6n2c5c31)C(=O)NC4 [Staurosporine, reference compound]
- IC50: 4.42 µM
